Experimental data from paper PMC7005177.
Results are given in words; binding and its absence hold for the method and conditions named. Binding seen in cells or lysates may run through a third protein. Some entries that bind do so weakly or less than the wild type. Where a sequence is shown, tags or fusion partners need not be part of it.

The chains behind the UniProt entries cited, without tags or fusion partners.
UniProt Q92608: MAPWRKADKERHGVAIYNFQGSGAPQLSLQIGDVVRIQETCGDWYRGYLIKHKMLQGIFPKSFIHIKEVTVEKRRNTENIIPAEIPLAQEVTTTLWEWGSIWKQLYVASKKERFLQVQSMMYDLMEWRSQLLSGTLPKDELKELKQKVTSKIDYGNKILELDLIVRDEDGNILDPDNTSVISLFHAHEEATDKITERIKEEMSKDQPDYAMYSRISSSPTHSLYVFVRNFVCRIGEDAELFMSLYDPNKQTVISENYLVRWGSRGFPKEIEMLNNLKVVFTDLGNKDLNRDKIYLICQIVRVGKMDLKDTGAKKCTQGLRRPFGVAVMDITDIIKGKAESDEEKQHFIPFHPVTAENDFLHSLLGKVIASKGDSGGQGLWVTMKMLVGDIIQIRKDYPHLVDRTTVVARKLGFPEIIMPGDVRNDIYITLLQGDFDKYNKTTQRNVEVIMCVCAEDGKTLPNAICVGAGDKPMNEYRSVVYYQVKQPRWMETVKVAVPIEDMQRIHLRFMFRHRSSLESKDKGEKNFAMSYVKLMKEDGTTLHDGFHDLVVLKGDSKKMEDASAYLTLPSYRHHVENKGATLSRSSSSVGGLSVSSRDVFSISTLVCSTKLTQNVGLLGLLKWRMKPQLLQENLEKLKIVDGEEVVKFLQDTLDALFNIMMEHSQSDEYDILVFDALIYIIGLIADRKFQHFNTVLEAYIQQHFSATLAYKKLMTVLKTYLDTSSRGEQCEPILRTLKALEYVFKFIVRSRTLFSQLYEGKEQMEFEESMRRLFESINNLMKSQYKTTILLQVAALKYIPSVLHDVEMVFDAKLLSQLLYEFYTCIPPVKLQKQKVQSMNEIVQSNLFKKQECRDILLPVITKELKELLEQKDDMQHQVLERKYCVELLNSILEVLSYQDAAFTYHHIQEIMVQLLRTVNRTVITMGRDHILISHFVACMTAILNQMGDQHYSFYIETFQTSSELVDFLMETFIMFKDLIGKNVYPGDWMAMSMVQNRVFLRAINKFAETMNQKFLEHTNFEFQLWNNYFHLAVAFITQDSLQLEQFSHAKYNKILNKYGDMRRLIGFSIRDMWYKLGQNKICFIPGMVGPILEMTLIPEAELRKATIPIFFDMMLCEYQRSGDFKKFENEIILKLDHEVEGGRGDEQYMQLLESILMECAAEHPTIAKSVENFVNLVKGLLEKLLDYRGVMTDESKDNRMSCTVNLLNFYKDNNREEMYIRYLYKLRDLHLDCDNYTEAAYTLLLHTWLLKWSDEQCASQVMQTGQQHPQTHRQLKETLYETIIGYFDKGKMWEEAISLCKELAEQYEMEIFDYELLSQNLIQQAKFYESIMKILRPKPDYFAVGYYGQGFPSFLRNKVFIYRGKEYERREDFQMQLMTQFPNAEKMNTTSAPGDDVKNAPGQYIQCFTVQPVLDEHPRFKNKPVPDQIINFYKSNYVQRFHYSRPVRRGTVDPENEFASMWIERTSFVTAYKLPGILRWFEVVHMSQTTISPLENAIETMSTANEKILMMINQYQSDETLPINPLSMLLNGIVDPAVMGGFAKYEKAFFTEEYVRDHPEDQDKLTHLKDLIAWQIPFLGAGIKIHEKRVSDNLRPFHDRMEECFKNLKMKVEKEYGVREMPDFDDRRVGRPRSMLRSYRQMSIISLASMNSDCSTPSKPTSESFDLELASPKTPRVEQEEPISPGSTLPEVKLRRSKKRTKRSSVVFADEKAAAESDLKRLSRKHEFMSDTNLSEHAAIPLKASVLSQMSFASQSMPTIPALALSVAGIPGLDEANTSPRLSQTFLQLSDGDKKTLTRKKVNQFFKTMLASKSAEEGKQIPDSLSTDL

Target: HA-DOCK2 (UniProt Q92608)
Assay: co-IP; HEK293T cell lysates ~48 h post-transfection with HA-DOCK2 and Flag-RASSF2; HA-immunoprecipitation, then immunoblotting

B1: Flag-RASSF2 (protein, UniProt P50749 1-326)
chain: MDYSHQTSLVPCGQDKYISKNELLLHLKTYNLYYEGQNLQLRHREEEDEFIVEGLLNISWGLRRPIRLQMQDDNERIRPPPSSSSWHSGCNLGAQGTTLKPLTVPKVQISEVDAPPEGDQMPSSTDSRGLKPLQEDTPQLMRTRSDVGVRRRGNVRTPSDQRRIRRHRFSINGHFYNHKTSVFTPAYGSVTNVRINSTMTTPQVLKLLLNKFKIENSAEEFALYVVHTSGEKQKLKATDYPLIARILQGPCEQISKVFLMEKDQVEEVTYDVAQYIKFEMPVLKSFIQKLQEEEDREVKKLMRKYTVLRLMIRQRLEEIAETPATI
With B1 the binding was “binds”.
